# Data from PubChem BioAssay AID602373 (National Center for Advancing Translational Sciences (NCATS), 2012).
# Values joined by “and” are separate entries in the source; they are usually repeats but may differ in a detail not shown here. Equal entries are not always repeated. The shares of active, inactive and inconclusive entries below differ from those in the screen. Potencies beside an inconclusive call are fits to weak or partial responses and may not hold up. Active and inactive are the calls of the source. The call rests on the fitted dose curve; in most records, active means well fitted inhibition curve with a large enough effect; inconclusive means small, poorly fitted or top-dose-only effect; inactive means no such curve, though single readings can be large or run the other way.
# Experiment: qHTS Assay for Inhibitors of Bacillus subtilis Sfp phosphopantetheinyl transferase (PPTase): Hepg2 Assay
# Conditions: HepG2 cytotoxicity counter-screen; series mostly up to 46.1 µM; activity change, negative = inhibition: at the top concentration
# Description: The covalent attachment of a phosphopantetheinyl (4'-PP) arm to a variety of synthases and other proteins is a key posttranslational protein modification. The 4'-PP is installed on the proteins post-translationally from coenzyme A (CoA) on a conserved serine residue by action of phosphopantetheinyl transferase (PPTase) enzymes. Phosphopantetheinylation is essential for synthase activity, and removal of the PPTase gene precludes natural product synthesis in microorganisms, or in the case of fatty acid biosynthesis, renders the organism unviable. PPTase enzymes belong to a distinct structural superfamily. Within bacteria, these enzymes are grouped into two classes based upon primary structure, the AcpS-Type and Sfp-Type PPTases.
# Sfp-type PPTases, corresponding to an activator of surfactin production in Bacillus subtilis, are responsible for modifying type I polyketide and nonribosomal peptide synthases of prokaryotes. Sfp-type PPTases are responsible for the activation of a variety of pathogen-associated virulence factors. Among these compounds are toxins such as mycolactone from Mycobacterium ulcerans, siderophores such as vibriobactin from Vibrio cholerae or mycobactin from Mycobacterium tuberculosis, as well as the mycolic acids which form the waxy cell wall of Mycobacteria. The biosyntheses of these natural products are considered attractive targets for drug design.
# In search of small molecule Sfp-PPTase inhibitors, a fluorescence quenching assay was developed for detection of Bacillus subtilis Sfp-PPTase enzymatic activity in a miniaturized high-throughput format. The consensus ybbr acceptor peptide […] was N-terminally labeled with Black Hole Quencher-2 (BHQ-2) and used in combination with rhodamine-labeled coenzyme A as a co-substrate.
# Phosphopantetheinyl transfer is a process essential to cellular viability and maintenance in all forms of life. Cell-permeable and stable compounds acting as PPTase inhibitors are anticipated to be growth inhibitory agents. This assay sought to assess the toxicity of test compounds in the HepG2 hepatocarcinoma cells; a human cell line whose use additionally determines the toxicity of test article metabolites.
# NIH Chemical Genomics Center [NCGC]
# NIH Molecular Libraries Probe Centers Network [MLPCN]
# Assay Submitter (PI): Michale Burkart, University of California, San Diego
# Test compounds' toxicity was assessed by measuring cellular ATP content using a luciferase-coupled ATP quantitation assay (CellTiter-Glo; Promega, Madison, WI). In this assay, luminescent signal is proportional to amount of ATP, and thus to the number of metabolically competent cells. Briefly, Hepg2 cell suspension (5 uL, 4 x 10^5 cells/mL) was dispensed into 1,536-well tissue-culture treated white/solid bottom assay plates (Greiner Bio-One North America, Monroe, NC) using a Flying Reagent Dispenser (Aurora Discovery, Carlsbad, CA). Cells were incubated at 37 deg C for 6 hr to allow for cell attachment, followed by addition of compounds via pin tool (Kalypsys, San Diego, CA). After compound addition, plates were incubated for 48 hr at 37 deg C. At the end of the incubation period, CellTiter-Glo reagent (5 uL) was added, plates were incubated at room temperature in the dark for 30 min, and the luminescence intensity of each well was determined using a ViewLux plate reader (PerkinElmer, Shelton, CT). The positive control was 92 uM and 41 uM of tetra-N-Octylammonium bromide, and the negative control was DMSO.
SMILES,"activity change, negative = inhibition",Potency
FC(F)(F)c1cccc(N2CCN(C(=S)Nc3cc4ccccc4cn3)CC2)c1,inactive: -4.29%,
Cc1ccnc(NC(=S)N2CCN(c3cccc(C(F)(F)F)c3)CC2)c1,,active: 28.1 µM and active: 9.96 µM and active: 25 µM
FC(F)(F)c1ccc(N2CCN(C(=S)Nc3ccccn3)CC2)cc1,,"inconclusive: 14.1 µM [inhibitor, partial curve]"
Cc1cc(C)nc(NC(=S)N2CCN(Cc3cccc4ccccc34)CC2)c1,inactive: 2.15%,
COc1cccc(NC(=S)N2CCN(c3ccc4ccccc4n3)CC2)n1,,"inconclusive: 14.1 µM [inhibitor, partial curve, poor fit]"
Cc1cc(C)nc(NC(=S)N2CCN(c3ccc(N4CCCC4)nn3)CC2)c1,inactive: 2.21%,
Cc1ccnc(NC(=S)N2CCCc3ccc(C(F)(F)F)cc32)c1,,"inconclusive: 0.0888 µM [inhibitor, full curve]"
Cc1ccnc(C(=S)N2CCN(c3cccc(C(F)(F)F)c3)CC2)c1,,"inconclusive: 7.05 µM [inhibitor, full curve]"
Cc1ccnc(NC(=S)NCCNc2cccc(C(F)(F)F)c2)c1,,"inconclusive: 35.3 µM [inhibitor, partial curve, poor fit]"
Cc1cc(C)nc(NC(=S)N2CC3CN(c4ccc(Cl)cc4C(F)(F)F)CC3C2)c1 (stereo not given),,"inconclusive: 5.6 µM [inhibitor, full curve]"
S=C(Nc1cc(Cl)ccn1)N1CCN(c2ccc3ccccc3n2)CC1,,"inconclusive: 22.3 µM [inhibitor, partial curve, poor fit]"
Cc1cc(C)nc(NC(=S)N2CCN(Cc3cccc(C(F)(F)F)c3)CC2)c1,,"inconclusive: 14.1 µM [inhibitor, partial curve, poor fit]"
FC(F)(F)c1cccc(N2CCN(C(=S)Nc3ccccn3)CC2)c1,,"inconclusive: 22.3 µM [inhibitor, single point]"
Cc1ccnc(NC(=S)N2CCN(c3ccc(N)cc3)CC2)c1,inactive: -12%,
Cc1ccnc(NC(=S)N2CCN(c3cccc(C(F)(F)F)c3)C2)c1,,"inconclusive: 25 µM [inhibitor, single point]"
Cc1cc(C)nc(NC(=S)N2CCN(c3nc4ccccc4s3)CC2)c1,inactive: 1.77%,
COc1cccc(NC(=S)N2CCN(c3ncc(C(F)(F)F)cc3Cl)CC2)n1,,"inconclusive: 12.5 µM [inhibitor, partial curve, poor fit]"
Cc1cc(C)nc(NC(=S)N2CCN(c3ccc([N+](=O)[O-])cc3Cl)CC2)c1,,"inconclusive: 15.8 µM [inhibitor, partial curve]"
COc1cccc(NC(=S)N2CCN(c3cc(Cl)cc(Cl)c3)CC2)n1,,"inconclusive: 4.99 µM [inhibitor, partial curve]"
Cc1ccnc(NC(=S)N2CCN(c3cccc(C(F)(F)F)n3)CC2)c1,,"inconclusive: 7.05 µM [inhibitor, full curve]"

# Structures listed so far with an aryl methoxy group, in the order listed:
SMILES,"activity change, negative = inhibition",Potency
COc1cccc(NC(=S)N2CCN(c3ccc4ccccc4n3)CC2)n1,,"inconclusive: 14.1 µM [inhibitor, partial curve, poor fit]"
COc1cccc(NC(=S)N2CCN(c3ncc(C(F)(F)F)cc3Cl)CC2)n1,,"inconclusive: 12.5 µM [inhibitor, partial curve, poor fit]"
COc1cccc(NC(=S)N2CCN(c3cc(Cl)cc(Cl)c3)CC2)n1,,"inconclusive: 4.99 µM [inhibitor, partial curve]"

# Remaining list, next part

SMILES,"activity change, negative = inhibition",Potency
Cc1ccnc(NC(=S)N2CCN(c3ccc(Cl)cc3Cl)CC2)c1,,"inconclusive: 22.3 µM [inhibitor, partial curve]"
Cc1cc(C)nc(NC(=S)N2CCN(S(=O)(=O)c3cccc(C(F)(F)F)c3)CC2)c1,inactive: -12.4%,
Cc1ccnc(NC(=S)N2CCN(c3cccc(N(C)C)c3)CC2)c1,,"inconclusive: 6.28 µM [inhibitor, partial curve]"
FC(F)(F)c1cccc(N2CCN(C(=S)Nc3nccc4ccccc34)CC2)c1,,"inconclusive: 5.6 µM [inhibitor, partial curve, poor fit]"
Cc1cc(C)nc(NC(=C(C#N)C#N)N2CCN(c3cccc(C(F)(F)F)c3)CC2)c1,,inactive
COc1ccnc(NC(=S)N2CCN(c3cccc(C(F)(F)F)n3)CC2)c1,,"inconclusive: 35.3 µM [inhibitor, partial curve, poor fit]"
Cc1cc(C)nc(NC(=S)N2CCN(c3cc(Cl)c(Cl)cc3Cl)CC2)c1,,"inconclusive: 35.3 µM [inhibitor, single point]"
Cc1cc(C)nc(NC(=S)N2CCN(c3nccc(C(F)(F)F)n3)CC2)c1,,"inconclusive: 17.7 µM [inhibitor, partial curve]"
Cc1cc(C)nc(NC(=S)N2CCN(c3ncnc4sccc34)CC2)c1,,active: 15.8 µM
Cc1cc(C)nc(NC(=S)N2CCN(c3ccc(Cl)nn3)CC2)c1,inactive: -6.42%,
Cc1ccnc(NC(=S)NC2CN(c3cccc(C(F)(F)F)c3)C2)c1,,active: 25 µM
Cc1cncc(NC(=S)N2CCN(c3cccc(C(F)(F)F)c3)CC2)c1,,"inconclusive: 7.05 µM [inhibitor, full curve]"
Cc1ccnc(NC(=S)Nc2cccc(C(F)(F)F)c2)c1,,"inconclusive: 6.28 µM [inhibitor, partial curve]"
Cc1cc(C)nc(NC(=S)N2CCN(c3cc(Cl)c(Cl)c(Cl)c3)CC2)c1,,"inconclusive: 6.28 µM [inhibitor, full curve]"
FC(F)(F)c1cnc(N2CCN(C(=S)Nc3cc(Cl)ccn3)CC2)c(Cl)c1,inactive: -6.14%,
S=C(Nc1cc(Cl)ccn1)N1CCN(c2cc(Cl)cc(Cl)c2)CC1,,active: 9.96 µM
Cc1nc(CN(C)c2ncnc3ccc(-c4ccc5[nH]ncc5c4)cc23)cs1,,"inconclusive: 8.88 µM [inhibitor, partial curve]"
COc1cccc(NC(=S)N2CCN(c3ccc(Cl)c(Cl)c3)CC2)n1,inactive: 4.44%,
Cc1cc(C)nc(/N=C(\NC#N)N2CCN(c3cccc(C(F)(F)F)c3)CC2)c1,,"inconclusive: 12.5 µM [inhibitor, partial curve]"
OCc1ccnc(NC(=S)N2CCN(c3cccc(C(F)(F)F)c3)CC2)c1,,"inconclusive: 5.6 µM [inhibitor, partial curve]"
